Like-named read-outs stand apart in the source and are kept apart here. Where a SMILES comes first, the peptide text is derived from it.
Columns and labels:
Gram-negative bacteria = assay: MIC against Gram-negative bacteria (V681 analog studies); assay type: cell-based
Protocol: (§1) Minimal inhibitory concentrations (MICs) are determined using a standard microtiter dilution method, with 3 sets of determinations, in LB (Luria-Bertani) no-salt medium (10 g of tryptone and 5 g of yeast extract per liter). In some cases, Mueller Hinton (MH) medium or Brain Heart Infusion (BHI) medium is used.
(§2) Briefly, cells were grown overnight at 37° C. in LB and diluted in the same medium. Serial dilutions of the peptides are added to the microtiter plates in a volume of 100 μl followed by 10 μl of bacteria to give a final inoculum of 5×10^5 colony-forming units/ml. Plates are incubated at 37° C. for 24 hours and MICs determined as the lowest peptide concentration that inhibited growth. Alternatively, minimal inhibitory concentrations are determined using a standard microtiter dilution method in a Mueller-Hinton (MH) medium. Briefly, cells are grown overnight at 37° C. in MH broth and diluted in the same medium. In some cases, serial dilutions of the peptides are added to the microtiter plates in a volume of 100 μl followed by 10 μl of bacteria to give a final inoculum of 1×10^5 colony-forming units/ml. Plates are incubated at 37° C. for 24 hours and MICs are determined as the lowest peptide concentration that inhibited growth.

Acinetobacter baumannii = assay type: cell-based
Protocol: as §1, §2
The biological activities of these six peptide analogs was determined against 11 clinical isolated of Acinetobacter baumannii (Table 9). Please note that the activities are reported in micromolar rather than microgram/ml. This allows a direct comparison on a molar basis with the effectiveness of molecules of different molecular weights whether peptides disclosed herein or antibiotics which in general are smaller in molecular mass. […] These are the highest antimicrobial activities observed in studies of antimicrobial peptides derived by modifying the peptide sequence of SEQ ID NO:24 (D1). D22 has the best hemolytic activity of the six analogs (D17-D22) and a therapeutic index of […] compared to […] for D1 (Table 9). D22 has no apparent advantage over D1 as determined in these experiments.

Pseudomonas aeruginosa = conditions: for Pseudomonas aeruginosa Therapeutic index (HC50/MICGM): Table 12; for Therapeutic index HC50/MIC: HC50 over geometric mean MIC; for Therapeutic index HC50/MIC / Therapeutic index Fold (improvement compared to D1): P. aeruginosa

SMILES: CC[C@H](C)[C@H](NC(=O)[C@H](C)NC(=O)[C@H](CCCCN)NC(=O)[C@H](CC(C)C)NC(=O)[C@H](C)NC(=O)[C@@H](NC(=O)[C@H](Cc1c[nH]cn1)NC(=O)[C@H](CC(C)C)NC(=O)[C@@H](NC(=O)[C@@H](NC(=O)[C@H](CCCCN)NC(=O)[C@@H](C)NC(=O)[C@H](C)NC(=O)[C@H](CO)NC(=O)[C@H](CCCCN)NC(=O)[C@H](Cc1ccccc1)NC(=O)[C@@H](NC(=O)[C@H](CCCCN)NC(=O)[C@H](CC(C)C)NC(=O)[C@H](Cc1ccccc1)NC(=O)[C@H](CO)NC(=O)[C@H](CCCCN)NC(=O)[C@H](Cc1c[nH]c2ccccc12)NC(=O)[C@H](CCCCN)NC(C)=O)[C@@H](C)O)[C@@H](C)O)C(C)C)[C@@H](C)O)C(=O)N[C@@H](CO)C(=O)N[C@@H](CO)C(N)=O [NAD] (HELM PEPTIDE1{[ac].K.W.K.S.F.L.K.T.F.K.S.A.[dA].K.T.V.L.H.T.A.L.K.A.I.S.S.[am]}$$$$V2.0)
- Fold increase in therapeutic index against Gram-negative bacteria compared to V681 (Gram-negative bacteria): 42 fold

SMILES: CC[C@@H](C)[C@@H](NC(=O)[C@@H](C)NC(=O)[C@@H](CCCCN)NC(=O)[C@@H](CC(C)C)NC(=O)[C@@H](C)NC(=O)[C@H](NC(=O)[C@@H](CCCCN)NC(=O)[C@@H](CC(C)C)NC(=O)[C@H](NC(=O)[C@@H](CCCCN)NC(=O)[C@@H](CCCCN)NC(=O)[C@@H](CCCCN)NC(=O)[C@@H](C)NC(=O)[C@@H](CCCCN)NC(=O)[C@@H](CO)NC(=O)[C@@H](Cc1ccccc1)NC(=O)[C@H](NC(=O)[C@@H](CCCCN)NC(=O)[C@@H](CC(C)C)NC(=O)[C@@H](Cc1ccccc1)NC(=O)[C@@H](CO)NC(=O)[C@@H](CCCCN)NC(=O)[C@@H](Cc1c[nH]c2ccccc12)NC(=O)[C@@H](CCCCN)NC(C)=O)[C@H](C)O)C(C)C)[C@H](C)O)C(=O)N[C@H](CO)C(=O)N[C@H](CCCCN)C(N)=O [Peptide D11, Ac-KWKSFLKTFSKAKKKVLKTALKAISK-amide]
- Therapeutic Index HC50/MIC against A. baumannii (Acinetobacter baumannii): 423.5

SMILES: CC[C@@H](C)[C@@H](NC(=O)[C@@H](CC(C)C)NC(=O)[C@@H](CCCCN)NC(=O)[C@@H](CC(C)C)NC(=O)[C@@H](CC(C)C)NC(=O)[C@H](NC(=O)[C@@H](CCCCN)NC(=O)[C@@H](CC(C)C)NC(=O)[C@@H](CCCCN)NC(=O)[C@@H](CCCCN)NC(=O)[C@@H](CCCCN)NC(=O)[C@@H](CCCCN)NC(=O)[C@@H](CC(C)C)NC(=O)[C@@H](CCCCN)NC(=O)[C@@H](CO)NC(=O)[C@@H](Cc1ccccc1)NC(=O)[C@H](NC(=O)[C@@H](CCCCN)NC(=O)[C@@H](CC(C)C)NC(=O)[C@@H](Cc1ccccc1)NC(=O)[C@@H](CO)NC(=O)[C@@H](CCCCN)NC(=O)[C@@H](Cc1c[nH]c2ccccc12)NC(=O)[C@@H](CCCCN)NC(C)=O)[C@H](C)O)[C@H](C)O)C(=O)N[C@H](CO)C(=O)N[C@H](CCCCN)C(N)=O [Peptide D12, Ac-KWKSFLKTFSKLKKKKLKTLLKLISK-amide]
- Pseudomonas aeruginosa Therapeutic index (HC50/MICGM) (Pseudomonas aeruginosa): 4.7
- Therapeutic Index HC50/MIC against A. baumannii (Acinetobacter baumannii): 9.6

SMILES: CC[C@@H](C)[C@@H](NC(=O)[C@@H](C)NC(=O)[C@@H](CCCCN)NC(=O)[C@@H](CC(C)C)NC(=O)[C@@H](CC(C)C)NC(=O)[C@H](NC(=O)[C@@H](CCCCN)NC(=O)[C@@H](CC(C)C)NC(=O)[C@@H](CCCCN)NC(=O)[C@@H](CCCCN)NC(=O)[C@@H](CCCCN)NC(=O)[C@@H](CCCCN)NC(=O)[C@@H](C)NC(=O)[C@@H](CCCCN)NC(=O)[C@@H](CO)NC(=O)[C@@H](Cc1ccccc1)NC(=O)[C@H](NC(=O)[C@@H](CCCCN)NC(=O)[C@@H](CC(C)C)NC(=O)[C@@H](Cc1ccccc1)NC(=O)[C@@H](CO)NC(=O)[C@@H](CCCCN)NC(=O)[C@@H](Cc1c[nH]c2ccccc12)NC(=O)[C@@H](CCCCN)NC(C)=O)[C@H](C)O)[C@H](C)O)C(=O)N[C@H](CO)C(=O)N[C@H](CCCCN)C(N)=O [Peptide D14, Ac-KWKSFLKTFSKAKKKKLKTLLKAISK-amide]
- Therapeutic Index HC50/MIC against A. baumannii (Acinetobacter baumannii): 439.4

SMILES: CC(=O)N[C@H](CCCCN)C(=O)N[C@H](CC(C)C)C(=O)N[C@H](CCCCN)C(=O)N[C@H](CO)C(=O)N[C@H](CC(C)C)C(=O)N[C@H](CC(C)C)C(=O)N[C@H](CCCCN)C(=O)N[C@@H](C(=O)N[C@H](CC(C)C)C(=O)N[C@H](CO)C(=O)N[C@H](CCCCN)C(=O)N[C@H](C)C(=O)N[C@H](CCCCN)C(=O)N[C@H](CCCCN)C(=O)N[C@H](CCCCN)C(=O)N[C@H](CC(C)C)C(=O)N[C@H](CC(C)C)C(=O)N[C@H](CCCCN)C(=O)N[C@@H](C(=O)N[C@H](C)C(=O)N[C@H](CC(C)C)C(=O)N[C@H](CCCCN)C(=O)N[C@H](C)C(=O)N[C@H](CC(C)C)C(=O)N[C@H](CO)C(=O)N[C@H](CCCCN)C(N)=O)[C@H](C)O)[C@H](C)O [Peptide D15, Ac-KLKSLLKTLSKAKKKLLKTALKALSK-amide]
- Therapeutic Index HC50/MIC against A. baumannii (Acinetobacter baumannii): 339.2

SMILES: CC[C@@H](C)[C@@H](NC(=O)[C@@H](C)NC(=O)[C@@H](CCCCN)NC(=O)[C@@H](CC(C)C)NC(=O)[C@@H](CC(C)C)NC(=O)[C@H](NC(=O)[C@@H](CCCCN)NC(=O)[C@@H](CC(C)C)NC(=O)[C@@H](C)NC(=O)[C@@H](CCCCN)NC(=O)[C@@H](CCCCN)NC(=O)[C@@H](CCCCN)NC(=O)[C@@H](C)NC(=O)[C@@H](CCCCN)NC(=O)[C@@H](CO)NC(=O)[C@@H](Cc1ccccc1)NC(=O)[C@H](NC(=O)[C@@H](CCCCN)NC(=O)[C@@H](CC(C)C)NC(=O)[C@@H](Cc1ccccc1)NC(=O)[C@@H](CO)NC(=O)[C@@H](CCCCN)NC(=O)[C@@H](Cc1c[nH]c2ccccc12)NC(=O)[C@@H](CCCCN)NC(C)=O)[C@H](C)O)[C@H](C)O)C(=O)N[C@H](CO)C(=O)N[C@H](CCCCN)C(N)=O [Peptide D22, Ac-KWKSFLKTFSKAKKKALKTLLKAISK-amide]
- Therapeutic index HC50/MIC (Pseudomonas aeruginosa; Brain Heart Infusion medium): 25.3
- Therapeutic index Fold (improvement compared to D1) (Pseudomonas aeruginosa; Brain Heart Infusion medium): 1.88
- Therapeutic index HC50/MIC (Pseudomonas aeruginosa; Mueller Hinton medium): 35.6
- Therapeutic index Fold (improvement compared to D1) (Pseudomonas aeruginosa; Mueller Hinton medium): 1.05
- Therapeutic index against A. baumannii (printed with μM) (Acinetobacter baumannii; text to Table 9): 101.6 µM

SMILES: CC(=O)N[C@H](CCCCN)C(=O)N[C@H](CC(C)C)C(=O)N[C@H](CCCCN)C(=O)N[C@H](CO)C(=O)N[C@H](CC(C)C)C(=O)N[C@H](CC(C)C)C(=O)N[C@H](CCCCN)C(=O)N[C@@H](C(=O)N[C@H](CC(C)C)C(=O)N[C@H](CO)C(=O)N[C@H](CCCCN)C(=O)N[C@H](CC(C)C)C(=O)N[C@H](CCCCN)C(=O)N[C@H](CCCCN)C(=O)N[C@H](CCCCN)C(=O)N[C@H](CCCCN)C(=O)N[C@H](CC(C)C)C(=O)N[C@H](CCCCN)C(=O)N[C@@H](C(=O)N[C@H](CC(C)C)C(=O)N[C@H](CC(C)C)C(=O)N[C@H](CCCCN)C(=O)N[C@H](CC(C)C)C(=O)N[C@H](CC(C)C)C(=O)N[C@H](CO)C(=O)N[C@H](CCCCN)C(N)=O)[C@H](C)O)[C@H](C)O [Peptide D24, Ac-KLKSLLKTLSKLKKKKLKTLLKLLSK-amide]
- Pseudomonas aeruginosa Therapeutic index (HC50/MICGM) (Pseudomonas aeruginosa): 31.8
- Therapeutic Index HC50/MIC against A. baumannii (Acinetobacter baumannii): 64.6

— patent publication US9352015B2, “Antimicrobial peptides” (priority 2009, dated 2016)
